From article PMC4466657
Results are given in words; binding and its absence hold for the method and conditions named. Binding seen in cells or lysates may run through a third protein. Some results given as binding are weak or reduced against the parent protein; the word gives no strength. Values belong to the substance of their own block, whether it stands above or below them.

By UniProt entry, the sequences of proteins in these tests, tags left out.
UniProt O95863: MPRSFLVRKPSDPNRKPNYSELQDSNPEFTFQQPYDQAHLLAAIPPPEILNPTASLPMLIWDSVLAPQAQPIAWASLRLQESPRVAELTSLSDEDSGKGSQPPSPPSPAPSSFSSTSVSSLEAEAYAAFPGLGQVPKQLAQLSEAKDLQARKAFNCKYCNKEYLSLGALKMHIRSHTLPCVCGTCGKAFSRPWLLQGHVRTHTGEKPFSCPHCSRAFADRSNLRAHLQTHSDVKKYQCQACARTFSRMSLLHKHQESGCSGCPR
UniProt Q96KQ7: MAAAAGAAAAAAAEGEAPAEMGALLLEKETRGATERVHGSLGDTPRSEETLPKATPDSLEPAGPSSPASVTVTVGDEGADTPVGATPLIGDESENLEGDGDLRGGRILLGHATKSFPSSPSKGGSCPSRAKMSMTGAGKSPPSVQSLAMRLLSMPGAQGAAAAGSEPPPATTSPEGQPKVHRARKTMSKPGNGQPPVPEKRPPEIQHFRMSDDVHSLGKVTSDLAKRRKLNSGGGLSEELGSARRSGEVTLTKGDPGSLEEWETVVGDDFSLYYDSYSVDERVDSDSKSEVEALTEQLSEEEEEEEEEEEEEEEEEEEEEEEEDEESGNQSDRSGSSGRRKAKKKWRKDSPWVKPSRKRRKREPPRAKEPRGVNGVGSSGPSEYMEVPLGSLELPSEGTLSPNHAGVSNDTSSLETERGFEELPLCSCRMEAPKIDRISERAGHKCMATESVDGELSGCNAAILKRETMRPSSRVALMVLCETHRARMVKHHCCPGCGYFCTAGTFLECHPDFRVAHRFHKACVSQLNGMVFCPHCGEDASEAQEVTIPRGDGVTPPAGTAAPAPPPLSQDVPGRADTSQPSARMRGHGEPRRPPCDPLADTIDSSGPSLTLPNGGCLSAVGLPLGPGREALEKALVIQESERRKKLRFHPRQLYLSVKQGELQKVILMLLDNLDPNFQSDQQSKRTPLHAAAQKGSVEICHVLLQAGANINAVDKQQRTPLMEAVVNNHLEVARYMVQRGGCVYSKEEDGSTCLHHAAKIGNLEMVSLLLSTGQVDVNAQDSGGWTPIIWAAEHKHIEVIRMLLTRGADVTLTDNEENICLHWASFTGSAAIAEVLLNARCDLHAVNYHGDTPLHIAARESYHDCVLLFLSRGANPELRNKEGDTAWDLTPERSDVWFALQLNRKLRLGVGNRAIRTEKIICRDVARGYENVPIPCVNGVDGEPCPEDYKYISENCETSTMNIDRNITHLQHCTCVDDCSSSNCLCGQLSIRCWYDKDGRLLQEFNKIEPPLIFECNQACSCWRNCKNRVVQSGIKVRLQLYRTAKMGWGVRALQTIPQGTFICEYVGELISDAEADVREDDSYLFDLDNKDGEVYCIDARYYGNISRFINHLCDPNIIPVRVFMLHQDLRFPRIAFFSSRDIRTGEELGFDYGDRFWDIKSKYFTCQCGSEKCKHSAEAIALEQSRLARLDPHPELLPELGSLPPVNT

Assays:
[1] = target: GFP-tagged Snail (human) (UniProt O95863); assay: co-IP; HEK293T cells transiently transfected with Flag-tagged G9a and GFP-tagged Snail; cell extracts immunoprecipitated with Flag or GFP antibodies, Western blot
[2] = target: Flag-tagged G9a (UniProt Q96KQ7); assay: as above
[3] = target: endogenous G9a (HN12 cells) (human (endogenous in HN12)) (UniProt Q96KQ7); assay: co-IP; endogenous Snail and G9a immunoprecipitated from HN12 cells, Western blot

binding [1]: binds
Substance: Flag-tagged G9a (from UniProt Q96KQ7 1-1210) (enzyme)

binding [2]: binds
Substance: GFP-tagged Snail (from UniProt O95863 1-264)

binding [3]: binds
Substance: endogenous Snail (HN12 cells) (from UniProt O95863 1-264)
